In patent EP1028734B1, “USE OF SPECIFIC STEADY-STATE R-TYPE CALCIUM CHANNEL BLOCKERS” (priority 1997, dated 1999):
At least one compound was matched to its structure with a doubt left.

How the values were obtained:
Format in all cases: cell-based
R-type Ca^2+ channel = test: block of R-type Ca2+ channel (data not shown)
[1] = test system: human aortic vascular smooth muscle cell line; test: spontaneous proliferation of human aortic vascular smooth muscle cell line; settings: MV8608 10^-8M, MV8612 10^-8M, nifedipine 10^-7M, Figure 28
[2] = test system: human osteoblast cancer lines (MG63 and FAOS-2); test: spontaneous proliferation of human osteoblast cancer lines; settings: Lomir/Dynacirc 10^-8M, nifedipine 10^-6M, non published results

SMILES	block of the R-type Ca^2+ by L-type Ca^2+ channel blockers (R-type Ca^2+ channel)	spontaneous proliferation [1]	spontaneous cell proliferation [2]
COC(=O)C1=C(C)NC(C)=C(C(=O)OCCN(C)Cc2ccccc2)C1c1cccc([N+](=O)[O-])c1 (stereo not drawn) [nicardipine]	none were found to block	–	–
COC(=O)C1=C(C)NC(C)=C(C(=O)OC)C1c1ccccc1[N+](=O)[O-] [nifedipine]	–	not	had no effect
